Experimental data published in the supplement of paper PMC10849652.
The other results are listed elsewhere or left out. Residues, ends and D or L forms follow the SMILES beside them. *: point of attachment. Cbz = O=C(OCc1ccccc1)*

By UniProt entry, the sequences of proteins in these tests, tags left out. Where a name states a change or a piece, a line headed by the entry shows the natural chain unless it says otherwise.
UniProt Q6IAA8, whole entry, looked up: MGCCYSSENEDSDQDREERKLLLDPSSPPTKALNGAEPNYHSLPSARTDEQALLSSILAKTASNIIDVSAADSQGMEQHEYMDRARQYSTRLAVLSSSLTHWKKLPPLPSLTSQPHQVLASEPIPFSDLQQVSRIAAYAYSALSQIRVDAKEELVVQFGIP
UniProt O94898: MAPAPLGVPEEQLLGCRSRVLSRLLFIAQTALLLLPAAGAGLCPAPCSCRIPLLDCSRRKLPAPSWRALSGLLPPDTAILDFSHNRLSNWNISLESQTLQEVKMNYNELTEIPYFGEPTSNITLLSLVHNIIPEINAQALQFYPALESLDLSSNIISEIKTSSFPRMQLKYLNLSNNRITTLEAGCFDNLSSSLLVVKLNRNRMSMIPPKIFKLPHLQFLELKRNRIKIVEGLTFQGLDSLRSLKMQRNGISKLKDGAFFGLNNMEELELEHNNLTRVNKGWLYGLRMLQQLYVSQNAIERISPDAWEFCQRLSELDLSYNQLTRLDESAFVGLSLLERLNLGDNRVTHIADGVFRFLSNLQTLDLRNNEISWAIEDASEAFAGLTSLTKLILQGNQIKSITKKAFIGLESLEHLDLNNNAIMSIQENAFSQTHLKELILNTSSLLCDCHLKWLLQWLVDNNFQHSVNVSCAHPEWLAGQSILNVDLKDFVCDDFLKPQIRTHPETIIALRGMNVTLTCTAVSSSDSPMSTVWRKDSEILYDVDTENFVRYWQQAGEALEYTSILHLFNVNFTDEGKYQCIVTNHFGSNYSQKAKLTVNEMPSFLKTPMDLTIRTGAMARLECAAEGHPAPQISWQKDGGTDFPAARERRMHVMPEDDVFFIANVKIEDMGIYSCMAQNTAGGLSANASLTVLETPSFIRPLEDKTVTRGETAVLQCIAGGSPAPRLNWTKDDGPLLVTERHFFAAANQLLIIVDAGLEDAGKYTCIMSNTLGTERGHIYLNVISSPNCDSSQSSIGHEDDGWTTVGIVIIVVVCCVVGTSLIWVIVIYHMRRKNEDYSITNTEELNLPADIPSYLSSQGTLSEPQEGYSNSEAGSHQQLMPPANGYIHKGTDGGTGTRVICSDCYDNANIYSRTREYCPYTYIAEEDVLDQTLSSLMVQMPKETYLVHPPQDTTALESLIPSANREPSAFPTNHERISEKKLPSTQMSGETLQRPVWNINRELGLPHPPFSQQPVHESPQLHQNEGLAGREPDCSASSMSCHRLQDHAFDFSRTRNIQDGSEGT
UniProt P49257: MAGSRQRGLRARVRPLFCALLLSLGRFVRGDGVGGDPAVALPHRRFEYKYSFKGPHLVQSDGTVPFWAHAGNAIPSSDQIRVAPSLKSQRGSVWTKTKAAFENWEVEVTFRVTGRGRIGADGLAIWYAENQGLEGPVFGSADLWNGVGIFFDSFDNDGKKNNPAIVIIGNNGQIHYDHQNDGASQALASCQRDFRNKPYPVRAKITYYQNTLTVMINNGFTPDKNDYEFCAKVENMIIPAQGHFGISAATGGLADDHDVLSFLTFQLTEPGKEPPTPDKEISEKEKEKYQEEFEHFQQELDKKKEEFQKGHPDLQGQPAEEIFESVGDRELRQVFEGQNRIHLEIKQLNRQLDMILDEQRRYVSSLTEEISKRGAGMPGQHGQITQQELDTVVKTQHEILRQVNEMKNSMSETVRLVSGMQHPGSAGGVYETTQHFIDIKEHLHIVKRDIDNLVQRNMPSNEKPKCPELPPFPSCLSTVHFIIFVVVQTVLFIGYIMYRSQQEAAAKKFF
UniProt Q9NS86: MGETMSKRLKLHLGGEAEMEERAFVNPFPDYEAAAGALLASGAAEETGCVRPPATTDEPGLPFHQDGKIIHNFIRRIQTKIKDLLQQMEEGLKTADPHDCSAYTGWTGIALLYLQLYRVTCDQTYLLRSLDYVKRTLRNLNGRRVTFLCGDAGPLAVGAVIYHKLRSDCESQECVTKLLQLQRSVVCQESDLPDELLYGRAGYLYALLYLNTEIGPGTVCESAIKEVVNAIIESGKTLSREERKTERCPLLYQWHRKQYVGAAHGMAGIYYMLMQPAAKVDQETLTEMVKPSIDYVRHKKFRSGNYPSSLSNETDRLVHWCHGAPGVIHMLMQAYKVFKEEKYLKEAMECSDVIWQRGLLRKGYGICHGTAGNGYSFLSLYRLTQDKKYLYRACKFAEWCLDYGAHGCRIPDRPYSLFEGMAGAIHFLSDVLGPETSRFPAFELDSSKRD
UniProt Q6YP21: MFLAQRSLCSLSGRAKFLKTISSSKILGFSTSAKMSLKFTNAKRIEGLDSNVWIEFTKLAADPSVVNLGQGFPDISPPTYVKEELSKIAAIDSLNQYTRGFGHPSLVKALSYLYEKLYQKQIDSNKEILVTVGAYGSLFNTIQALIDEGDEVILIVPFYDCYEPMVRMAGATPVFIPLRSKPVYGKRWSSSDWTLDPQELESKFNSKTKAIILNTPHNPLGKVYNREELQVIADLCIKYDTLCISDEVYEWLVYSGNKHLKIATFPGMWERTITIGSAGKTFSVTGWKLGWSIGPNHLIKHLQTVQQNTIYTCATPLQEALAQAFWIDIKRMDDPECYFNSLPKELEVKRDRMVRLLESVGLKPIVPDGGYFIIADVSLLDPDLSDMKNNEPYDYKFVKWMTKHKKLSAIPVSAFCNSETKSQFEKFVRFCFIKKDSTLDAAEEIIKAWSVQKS
UniProt Q9UIC8: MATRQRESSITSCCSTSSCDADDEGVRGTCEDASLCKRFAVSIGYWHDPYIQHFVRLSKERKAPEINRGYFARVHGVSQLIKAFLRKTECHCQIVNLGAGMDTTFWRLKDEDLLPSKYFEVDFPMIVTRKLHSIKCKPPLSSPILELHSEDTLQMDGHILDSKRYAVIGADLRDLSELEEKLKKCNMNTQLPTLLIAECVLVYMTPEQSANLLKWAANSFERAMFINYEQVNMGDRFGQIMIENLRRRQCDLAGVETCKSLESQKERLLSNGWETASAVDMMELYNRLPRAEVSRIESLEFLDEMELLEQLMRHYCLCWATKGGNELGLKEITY
UniProt P53671: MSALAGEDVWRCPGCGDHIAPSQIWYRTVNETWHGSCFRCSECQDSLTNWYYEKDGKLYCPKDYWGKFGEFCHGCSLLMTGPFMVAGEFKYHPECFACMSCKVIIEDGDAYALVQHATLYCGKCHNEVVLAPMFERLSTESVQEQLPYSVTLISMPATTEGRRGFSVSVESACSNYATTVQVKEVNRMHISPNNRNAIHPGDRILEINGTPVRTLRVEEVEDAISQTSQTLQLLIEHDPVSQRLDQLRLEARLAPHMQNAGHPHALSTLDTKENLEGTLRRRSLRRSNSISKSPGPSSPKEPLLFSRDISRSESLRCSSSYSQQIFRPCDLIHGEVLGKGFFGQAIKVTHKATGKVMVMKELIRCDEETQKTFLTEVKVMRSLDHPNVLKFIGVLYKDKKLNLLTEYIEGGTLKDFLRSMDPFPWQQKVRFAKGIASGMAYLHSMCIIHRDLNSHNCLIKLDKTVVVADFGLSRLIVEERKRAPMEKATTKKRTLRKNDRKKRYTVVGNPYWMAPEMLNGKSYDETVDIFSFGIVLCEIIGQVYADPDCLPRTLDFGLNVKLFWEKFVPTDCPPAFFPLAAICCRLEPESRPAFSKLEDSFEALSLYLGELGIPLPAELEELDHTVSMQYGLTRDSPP
UniProt P09382, whole entry, looked up: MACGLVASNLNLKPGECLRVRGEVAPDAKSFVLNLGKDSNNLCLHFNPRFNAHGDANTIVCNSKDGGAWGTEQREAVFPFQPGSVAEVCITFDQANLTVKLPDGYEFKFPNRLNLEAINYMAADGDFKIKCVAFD
UniProt Q96EM0: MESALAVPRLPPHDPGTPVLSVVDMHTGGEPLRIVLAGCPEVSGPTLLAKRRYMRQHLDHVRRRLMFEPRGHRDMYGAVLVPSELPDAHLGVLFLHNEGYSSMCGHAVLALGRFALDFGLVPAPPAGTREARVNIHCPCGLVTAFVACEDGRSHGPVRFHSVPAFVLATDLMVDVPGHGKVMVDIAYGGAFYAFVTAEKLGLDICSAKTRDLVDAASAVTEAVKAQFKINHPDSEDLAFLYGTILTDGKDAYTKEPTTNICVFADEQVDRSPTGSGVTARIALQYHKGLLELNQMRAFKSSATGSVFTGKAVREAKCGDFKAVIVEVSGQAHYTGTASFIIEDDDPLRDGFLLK
UniProt Q8N1G4: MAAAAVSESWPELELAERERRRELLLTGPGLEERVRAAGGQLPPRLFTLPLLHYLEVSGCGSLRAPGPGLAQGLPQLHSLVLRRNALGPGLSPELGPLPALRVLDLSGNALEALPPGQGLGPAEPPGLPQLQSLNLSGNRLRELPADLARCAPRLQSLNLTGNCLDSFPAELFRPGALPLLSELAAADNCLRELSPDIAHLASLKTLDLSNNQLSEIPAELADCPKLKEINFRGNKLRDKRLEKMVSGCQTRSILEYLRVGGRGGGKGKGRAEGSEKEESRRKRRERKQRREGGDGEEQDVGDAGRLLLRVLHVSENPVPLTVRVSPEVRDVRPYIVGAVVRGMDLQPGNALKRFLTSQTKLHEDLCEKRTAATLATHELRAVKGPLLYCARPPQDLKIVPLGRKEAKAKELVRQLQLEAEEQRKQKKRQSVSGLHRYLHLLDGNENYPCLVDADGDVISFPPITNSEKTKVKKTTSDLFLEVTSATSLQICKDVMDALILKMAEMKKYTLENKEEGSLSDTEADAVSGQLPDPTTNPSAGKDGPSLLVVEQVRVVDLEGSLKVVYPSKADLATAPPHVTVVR
UniProt O14910: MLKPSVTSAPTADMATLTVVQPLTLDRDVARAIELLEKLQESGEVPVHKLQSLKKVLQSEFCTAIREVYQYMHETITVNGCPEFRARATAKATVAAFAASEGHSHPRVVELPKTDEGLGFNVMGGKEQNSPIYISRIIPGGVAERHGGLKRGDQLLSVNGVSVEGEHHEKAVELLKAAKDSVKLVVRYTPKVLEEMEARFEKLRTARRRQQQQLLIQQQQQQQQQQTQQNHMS
UniProt P36776: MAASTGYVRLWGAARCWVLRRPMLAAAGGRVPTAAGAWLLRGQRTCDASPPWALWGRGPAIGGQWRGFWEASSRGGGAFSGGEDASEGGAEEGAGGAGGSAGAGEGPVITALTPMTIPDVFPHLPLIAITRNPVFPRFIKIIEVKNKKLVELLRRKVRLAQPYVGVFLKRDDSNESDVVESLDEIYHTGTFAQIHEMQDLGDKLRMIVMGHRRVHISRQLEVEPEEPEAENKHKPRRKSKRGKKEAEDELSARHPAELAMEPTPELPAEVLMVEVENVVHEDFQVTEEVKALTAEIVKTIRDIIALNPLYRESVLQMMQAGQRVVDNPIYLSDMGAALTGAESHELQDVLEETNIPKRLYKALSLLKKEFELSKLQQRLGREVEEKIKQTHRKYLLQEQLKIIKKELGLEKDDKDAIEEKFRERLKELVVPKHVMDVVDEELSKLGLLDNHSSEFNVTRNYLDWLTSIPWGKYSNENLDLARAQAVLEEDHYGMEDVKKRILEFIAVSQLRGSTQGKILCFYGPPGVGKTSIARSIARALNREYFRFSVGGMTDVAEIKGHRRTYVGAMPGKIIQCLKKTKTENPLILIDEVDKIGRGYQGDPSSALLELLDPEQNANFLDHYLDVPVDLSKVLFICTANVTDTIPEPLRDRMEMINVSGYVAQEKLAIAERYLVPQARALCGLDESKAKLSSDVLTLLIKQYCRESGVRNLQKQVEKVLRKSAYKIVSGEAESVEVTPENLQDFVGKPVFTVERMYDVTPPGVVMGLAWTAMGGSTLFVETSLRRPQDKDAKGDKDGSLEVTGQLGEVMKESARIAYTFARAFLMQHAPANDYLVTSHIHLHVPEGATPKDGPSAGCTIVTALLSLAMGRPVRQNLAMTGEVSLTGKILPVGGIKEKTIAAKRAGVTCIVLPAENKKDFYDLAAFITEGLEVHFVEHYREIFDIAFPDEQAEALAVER
UniProt P28838: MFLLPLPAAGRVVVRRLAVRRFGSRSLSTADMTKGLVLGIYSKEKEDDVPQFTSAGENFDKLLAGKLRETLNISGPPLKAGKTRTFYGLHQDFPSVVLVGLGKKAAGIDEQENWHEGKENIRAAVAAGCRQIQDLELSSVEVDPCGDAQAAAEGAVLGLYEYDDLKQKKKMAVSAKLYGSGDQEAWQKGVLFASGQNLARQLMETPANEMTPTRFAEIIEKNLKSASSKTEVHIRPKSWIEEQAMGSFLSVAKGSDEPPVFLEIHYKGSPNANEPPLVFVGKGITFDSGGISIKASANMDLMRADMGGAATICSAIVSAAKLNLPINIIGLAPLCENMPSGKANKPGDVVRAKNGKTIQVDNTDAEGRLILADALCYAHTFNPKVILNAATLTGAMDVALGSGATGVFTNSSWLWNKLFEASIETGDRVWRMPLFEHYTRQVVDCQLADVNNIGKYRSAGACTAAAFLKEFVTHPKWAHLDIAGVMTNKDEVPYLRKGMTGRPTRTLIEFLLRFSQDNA
UniProt Q9Y2Q5, whole entry, looked up: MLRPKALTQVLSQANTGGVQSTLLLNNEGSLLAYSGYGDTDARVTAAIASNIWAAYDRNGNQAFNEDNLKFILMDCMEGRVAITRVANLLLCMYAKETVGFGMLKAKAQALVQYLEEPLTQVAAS

Experiments:
Assay in all cases: log2 fold change, soluble protein after heating vs DMSO (PISA); higher = thermal stabilisation; K562 cells, 10 uM, 30 min; active = over 0.2 and 3.5 SD of the protein, either way, in both replicates (recomputed)
erlotinib = compound: C#Cc1cccc(Nc2ncnc3cc(OCCOC)c(OCCOC)cc23)c1 [erlotinib]
Summary of the method: (§1)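 Soluble protein was defined as the supernatant after 21,000xg for 90 min. It came from K562 cells at 2×10^6 cells/mL given 10 μM compound for 30 min, heated in aliquots for 3 min across 48°C-58°C, pooled, and extracted in PBS with 0.5% NP-40 at 4°C, and was quantified by TMTpro 16plex LC-MS/MS with equalised channel sums. Thermal stability against control samples, from duplicates, is reported as log2 fold change.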

[1] = compound: C/C(=N\NC(=O)C1=CC(=CC=C1)S(=O)(=O)N2CCOCC2)/C3=C(C=CC(=C3)Cl)O
Summary of the method: as §1

[2] = compound: C1=CC(=C(C=C1Cl)C2=NC3=NC=CN=C3C(=N2)NC4=CC=NC=C4)F
Summary of the method: as §1

[3] = compound: C1=CC(=CC=C1C2=NC3=C(N2)C=C(C=C3)C(=O)N)OC4=CC=C(C=C4)Cl
Summary of the method: as §1

[4] = compound: C1=CC2=C(C=CC(=C2)/C=C\3/C(=O)NC(=NCC4=CC=CS4)S3)N=C1
Summary of the method: as §1

[5] = compound: C1=CC2=NC=CN=C2C=C1/C=C/3\C(=O)NC(=O)S3
Summary of the method: as §1

[6] = compound: C1=CC=C(C=C1)C2=NC(=C(N2)C3=CC=NC=C3)C4=CC(=C(C=C4)Cl)O
Summary of the method: as §1

[7] = compound: C1=CC=C2C(=C1)C3=NNC4=CC=CC(=C43)C2=O
Summary of the method: as §1

[8] = compound: C1CCN(C1)C(=O)NC2=CC=CC(=C2)NC3=NC=C(C(=N3)NCCC4=CN=CN4)Br
Summary of the method: as §1

[9] = compound: C1CN(CCC1(CC2=CC=C(C=C2)Cl)N)C3=NC=NC4=C3C=CN4
Summary of the method: as §1

IRAK-1-4 Inhibitor I = compound: C1COCCN1CCN2C3=CC=CC=C3N=C2NC(=O)C4=CC(=CC=C4)[N+](=O)[O-] [IRAK-1-4 Inhibitor I]
Summary of the method: as §1

ibrutinib = compound: C=CC(=O)N1CCC[C@@H](n2nc(-c3ccc(Oc4ccccc4)cc3)c3c(N)ncnc32)C1 [ibrutinib]
Summary of the method: as §1

[10] = compound: CC(=O)c1cnc2ccc(-c3cc(Cl)c(O)c(Cl)c3)nc2c1N[C@H]1CC[C@H](CN(C)C)CC1
Summary of the method: as §1

ralimetinib = compound: CC(C)(C)Cn1c(N)nc2ccc(-c3[nH]c(C(C)(C)C)nc3-c3ccc(F)cc3)nc21 [ralimetinib]
Summary of the method: as §1

[11] = compound: CC(C)(O)CC(=O)NCCn1ccc2ncnc(Nc3ccc(Oc4cccc(C(F)(F)F)c4)c(Cl)c3)c21
Summary of the method: as §1

[12] = compound: CC(C)C1=C2N=C(C=C(N2N=C1)NCC3=CC=CC=C3)NCCCCCCN
Summary of the method: as §1

[13] = compound: CC(C)C[C@@H](C=O)NC(=O)[C@H](CC(C)C)NC(=O)[C@H](CC(C)C)NC(=O)OCc1ccccc1
Summary of the method: as §1

pinometostat = compound: CC(C)N(C[C@H]1O[C@@H](n2cnc3c(N)ncnc32)[C@H](O)[C@@H]1O)[C@H]1C[C@@H](CCc2nc3cc(C(C)(C)C)ccc3[nH]2)C1 [pinometostat]
Summary of the method: as §1

[14] = compound: CC1=C(C(CC(=O)N1)C2=CC=C(C=C2)C(F)(F)F)C(=O)NC3=C(C=C4C(=C3)C=NN4)F
Summary of the method: as §1

[15] = compound: CC1=C(C2=C(C=C1)C(=O)C3=CC=CC=C3N2CCCN)C
Summary of the method: as §1

Measured: log2 fold change

LARS (UniProt Q9P2J5)
inactive: erlotinib -0.025 | [1] -0.03 | [2] -0.252 | [3] -0.011 | [4] -0.016 | [5] 0.005 | [6] -0.04 | [7] 0.013 | [8] 0.065 | [9] -0.123 | IRAK-1-4 Inhibitor I -0.102 | ibrutinib 0.002 | [10] 0.146 | ralimetinib 0.2 | [11] 0.082 | [12] -0.201 | [13] 0.1 | pinometostat 0.355 | [14] 0.004 | [15] -0.036

LAMTOR1 (UniProt Q6IAA8)
inactive: erlotinib -0.059 | [1] 0.017 | [2] 0.005 | [3] 0.075 | [4] 0.061 | [5] 0.024 | [6] 0.055 | [7] 0.052 | [8] -0.075 | [9] -0.041 | IRAK-1-4 Inhibitor I 0.016 | ibrutinib 0.066 | [10] -0.206 | ralimetinib 0.116 | [11] 0 | [12] -0.32 | [13] -0.005 | pinometostat -0.004 | [14] 0.031 | [15] 0.018

LRIG2 (UniProt O94898)
inactive: erlotinib 0.107 | [1] -0.041 | [2] -0.007 | [3] -0.119 | [4] -0.066 | [5] -0.043 | [6] 0.051 | [7] -0.091 | [8] -0.11 | [9] -0.097 | IRAK-1-4 Inhibitor I 0 | ibrutinib 0.04 | [10] -0.018 | ralimetinib 0.045 | [11] 0.002 | [12] -0.05 | [13] 0.033 | pinometostat 0.08 | [14] 0.069 | [15] 0.051

LMAN1 (UniProt P49257)
inactive: erlotinib 0.012 | [1] -0.066 | [2] 0.025 | [3] -0.028 | [4] 0.045 | [5] 0.026 | [6] 0.019 | [7] -0.03 | [8] 0.048 | [9] 0.015 | IRAK-1-4 Inhibitor I -0.017 | ibrutinib -0.024 | [10] -0.017 | ralimetinib -0.019 | [11] -0.058 | [12] -0.084 | [13] -0.006 | pinometostat 0.02 | [14] 0.011 | [15] -0.006

LANCL2 (UniProt Q9NS86)
inactive: erlotinib 0.016 | [1] 0.012 | [2] 0.031 | [3] 0.033 | [4] -0.01 | [5] 0.027 | [6] -0.033 | [7] -0.024 | [8] -0.032 | [9] 0.037 | IRAK-1-4 Inhibitor I 0.022 | ibrutinib 0.039 | [10] 0.01 | ralimetinib -0.029 | [11] -0.038 | [12] 0.09 | [13] -0.023 | pinometostat 0.023 | [14] 0.009 | [15] -0.003

KYAT3 (UniProt Q6YP21)
inactive: erlotinib 0 | [1] 0.014 | [2] 0.016 | [3] 0.028 | [4] -0.024 | [5] -0.011 | [6] -0.02 | [7] -0.007 | [8] 0.035 | [9] 0.054 | IRAK-1-4 Inhibitor I 0.014 | ibrutinib 0.011 | [10] -0.008 | ralimetinib -0.058 | [11] 0 | [12] 0.051 | [13] -0.018 | pinometostat -0.025 | [14] 0.006 | [15] 0.017

LCMT1 (UniProt Q9UIC8)
inactive: erlotinib 0.041 | [1] 0.084 | [2] 0.008 | [3] 0.013 | [4] 0.044 | [5] 0.014 | [6] 0.056 | [7] 0.021 | [8] 0.02 | [9] -0.008 | IRAK-1-4 Inhibitor I 0.048 | ibrutinib -0.044 | [10] -0.004 | ralimetinib 0.011 | [11] 0 | [12] -0.041 | [13] -0.063 | pinometostat -0.003 | [14] -0.013 | [15] 0.204

LIMK2 isoform 3 (UniProt P53671)
inactive: erlotinib 0.072 | [1] -0.225 | [2] 0.005 | [3] -0.019 | [4] 0.054 | [5] 0.028 | [6] 0.042 | [7] 0.097 | [8] 0.151 | [9] 0.04 | IRAK-1-4 Inhibitor I 0.097 | ibrutinib 0.062 | [10] -0.11 | ralimetinib -0.048 | [11] 0.025 | [12] 0.14 | [13] -0.025 | pinometostat -0.153 | [14] 0.287 | [15] 0.058

LGALS1 (UniProt P09382)
inactive: erlotinib -0.001 | [1] -0.008 | [2] 0.063 | [3] -0.012 | [4] 0.049 | [5] 0.035 | [6] 0.031 | [7] -0.021 | [8] -0.035 | [9] 0.03 | IRAK-1-4 Inhibitor I 0.022 | ibrutinib -0.038 | [10] 0.035 | ralimetinib -0.036 | [11] -0.039 | [12] 0.023 | [13] 0.001 | pinometostat -0.036 | [14] -0.015 | [15] 0.08

LLPH (UniProt Q9BRT6)
inactive: erlotinib -0.222 | [1] -0.148 | [2] -0.596 | [3] 0.053 | [4] -0.071 | [5] 0.036 | [6] -0.193 | [7] 0.057 | [8] 0.075 | [9] -0.18 | IRAK-1-4 Inhibitor I -0.226 | ibrutinib -0.025 | [10] 0.184 | ralimetinib 0.235 | [11] 0.074 | [12] -0.051 | [13] 0.183 | pinometostat 0.33 | [14] -0.028 | [15] -0.607

L3HYPDH (UniProt Q96EM0)
inactive: erlotinib 0.06 | [1] 0.055 | [2] 0.052 | [3] -0.03 | [4] 0.042 | [5] -0.011 | [6] 0.084 | [7] -0.019 | [8] -0.021 | [9] 0.072 | IRAK-1-4 Inhibitor I 0.012 | ibrutinib 0.017 | [10] -0.017 | ralimetinib -0.004 | [11] -0.044 | [12] -0.012 | [13] -0.037 | pinometostat 0.018 | [14] -0.026 | [15] 0.049

LRRC47 (UniProt Q8N1G4)
inactive: erlotinib 0.018 | [1] 0.027 | [2] 0.016 | [3] 0.023 | [4] -0.013 | [5] -0.009 | [6] 0.015 | [7] -0.002 | [8] -0.03 | [9] -0.006 | IRAK-1-4 Inhibitor I 0.027 | ibrutinib -0.006 | [10] 0.008 | ralimetinib -0.031 | [11] -0.067 | [12] -0.033 | [13] -0.043 | pinometostat -0.042 | [14] -0.033 | [15] -0.039

LIN7A (UniProt O14910)
inactive: erlotinib 0.044 | [1] -0.014 | [2] 0.078 | [3] 0.064 | [4] 0.048 | [5] 0.05 | [6] -0.04 | [7] -0.047 | [8] -0.077 | [9] 0.029 | IRAK-1-4 Inhibitor I 0.137 | ibrutinib 0.014 | [10] -0.024 | ralimetinib -0.069 | [11] 0.038 | [12] 0.061 | [13] 0.035 | pinometostat -0.04 | [14] -0.104 | [15] -0.034

LONP1 (UniProt P36776)
inactive: erlotinib -0.01 | [1] -0.002 | [2] 0.009 | [3] -0.009 | [4] 0.005 | [5] 0.01 | [6] -0.021 | [7] -0.011 | [8] 0.004 | [9] 0.012 | IRAK-1-4 Inhibitor I 0.017 | ibrutinib -0.006 | [10] -0.005 | ralimetinib -0.043 | [11] 0.009 | [12] 0.04 | [13] -0.143 | pinometostat -0.036 | [14] 0.003 | [15] 0.039

Quoted from the entries so far (three entries):
LGALS1 (UniProt P09382)
inactive: erlotinib -0.001 | [1] -0.008 | [2] 0.063 | [3] -0.012 | [4] 0.049 | [5] 0.035 | [6] 0.031 | [7] -0.021 | [8] -0.035 | [9] 0.03 | IRAK-1-4 Inhibitor I 0.022 | ibrutinib -0.038 | [10] 0.035 | ralimetinib -0.036 | [11] -0.039 | [12] 0.023 | [13] 0.001 | pinometostat -0.036 | [14] -0.015 | [15] 0.08

LLPH (UniProt Q9BRT6)
inactive: erlotinib -0.222 | [1] -0.148 | [2] -0.596 | [3] 0.053 | [4] -0.071 | [5] 0.036 | [6] -0.193 | [7] 0.057 | [8] 0.075 | [9] -0.18 | IRAK-1-4 Inhibitor I -0.226 | ibrutinib -0.025 | [10] 0.184 | ralimetinib 0.235 | [11] 0.074 | [12] -0.051 | [13] 0.183 | pinometostat 0.33 | [14] -0.028 | [15] -0.607

L3HYPDH (UniProt Q96EM0)
inactive: erlotinib 0.06 | [1] 0.055 | [2] 0.052 | [3] -0.03 | [4] 0.042 | [5] -0.011 | [6] 0.084 | [7] -0.019 | [8] -0.021 | [9] 0.072 | IRAK-1-4 Inhibitor I 0.012 | ibrutinib 0.017 | [10] -0.017 | ralimetinib -0.004 | [11] -0.044 | [12] -0.012 | [13] -0.037 | pinometostat 0.018 | [14] -0.026 | [15] 0.049

Remaining list, next part

LAP3 (UniProt P28838)
inactive: erlotinib -0.063 | [1] -0.042 | [2] 0.043 | [3] 0.014 | [4] 0.004 | [5] 0.008 | [6] -0.006 | [7] 0.033 | [8] -0.013 | [9] 0.022 | IRAK-1-4 Inhibitor I 0.005 | ibrutinib 0.013 | [10] 0.007 | ralimetinib -0.058 | [11] -0.01 | [12] 0.019 | [13] -0.023 | pinometostat -0.068 | [14] 0.006 | [15] 0.01

LAMTOR2 (UniProt Q9Y2Q5)
inactive: erlotinib 0.008 | [1] -0.012 | [2] 0 | [3] 0.08 | [4] -0.02 | [5] 0.006 | [6] -0.122 | [7] 0.028 | [8] 0.005 | [9] 0.014 | IRAK-1-4 Inhibitor I 0.058 | ibrutinib 0.015 | [10] -0.138 | ralimetinib -0.007 | [11] -0.038 | [12] -0.182 | [13] 0.028 | pinometostat 0.116 | [14] 0.091 | [15] 0.037
